Test system: 5-HT1C receptor
Details: in vitro

Structure (SMILES): Cc1cc2c(s1)Nc1ccccc1N=C2N1CCN(C)CC1 [anhydrous Form I olanzapine, 2-methyl-4-(4-methyl-1-piperazinyl)-10H-thieno[2,3-b][1,5]benzodiazepine]
- activity at the 5-HT1C receptor: active

From patent publication US5637584A, “Solvate of olanzapine” (Eli Lilly and Company, priority 1995, dated 1997)
